# Reference: the supplement of paper PMC11732987, “Enantioselective OTUD7B fragment discovery through chemoproteomics screening and high-throughput optimisation” (Communications Chemistry, 2025)
# Amino acid sequences for entries named in this document (tags omitted). A change or cut given only in a name is not applied to a line headed by its entry. Residues count along the entry.
# UniProt P23921: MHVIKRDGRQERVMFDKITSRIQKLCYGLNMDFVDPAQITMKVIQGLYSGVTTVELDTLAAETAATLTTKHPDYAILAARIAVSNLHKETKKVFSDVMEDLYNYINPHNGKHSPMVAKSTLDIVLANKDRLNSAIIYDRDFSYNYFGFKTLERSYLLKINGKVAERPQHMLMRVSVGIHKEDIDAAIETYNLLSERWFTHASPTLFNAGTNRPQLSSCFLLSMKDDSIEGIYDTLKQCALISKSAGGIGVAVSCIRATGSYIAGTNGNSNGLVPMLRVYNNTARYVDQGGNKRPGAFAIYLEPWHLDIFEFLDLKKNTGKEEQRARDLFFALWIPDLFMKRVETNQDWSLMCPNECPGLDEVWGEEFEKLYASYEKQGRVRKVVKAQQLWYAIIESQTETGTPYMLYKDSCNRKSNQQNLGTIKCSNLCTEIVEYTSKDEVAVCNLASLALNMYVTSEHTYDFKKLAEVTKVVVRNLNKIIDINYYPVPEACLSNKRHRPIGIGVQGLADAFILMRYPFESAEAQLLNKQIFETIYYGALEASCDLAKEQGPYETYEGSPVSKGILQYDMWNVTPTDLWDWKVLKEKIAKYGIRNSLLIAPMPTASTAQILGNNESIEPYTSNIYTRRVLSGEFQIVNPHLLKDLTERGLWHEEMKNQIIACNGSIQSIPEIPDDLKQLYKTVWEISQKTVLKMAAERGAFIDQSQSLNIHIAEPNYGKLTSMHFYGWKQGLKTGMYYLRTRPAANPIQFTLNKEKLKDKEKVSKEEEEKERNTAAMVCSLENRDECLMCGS
# UniProt Q969K3, 139-168: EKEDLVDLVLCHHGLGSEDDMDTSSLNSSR
# UniProt Q9NZJ4: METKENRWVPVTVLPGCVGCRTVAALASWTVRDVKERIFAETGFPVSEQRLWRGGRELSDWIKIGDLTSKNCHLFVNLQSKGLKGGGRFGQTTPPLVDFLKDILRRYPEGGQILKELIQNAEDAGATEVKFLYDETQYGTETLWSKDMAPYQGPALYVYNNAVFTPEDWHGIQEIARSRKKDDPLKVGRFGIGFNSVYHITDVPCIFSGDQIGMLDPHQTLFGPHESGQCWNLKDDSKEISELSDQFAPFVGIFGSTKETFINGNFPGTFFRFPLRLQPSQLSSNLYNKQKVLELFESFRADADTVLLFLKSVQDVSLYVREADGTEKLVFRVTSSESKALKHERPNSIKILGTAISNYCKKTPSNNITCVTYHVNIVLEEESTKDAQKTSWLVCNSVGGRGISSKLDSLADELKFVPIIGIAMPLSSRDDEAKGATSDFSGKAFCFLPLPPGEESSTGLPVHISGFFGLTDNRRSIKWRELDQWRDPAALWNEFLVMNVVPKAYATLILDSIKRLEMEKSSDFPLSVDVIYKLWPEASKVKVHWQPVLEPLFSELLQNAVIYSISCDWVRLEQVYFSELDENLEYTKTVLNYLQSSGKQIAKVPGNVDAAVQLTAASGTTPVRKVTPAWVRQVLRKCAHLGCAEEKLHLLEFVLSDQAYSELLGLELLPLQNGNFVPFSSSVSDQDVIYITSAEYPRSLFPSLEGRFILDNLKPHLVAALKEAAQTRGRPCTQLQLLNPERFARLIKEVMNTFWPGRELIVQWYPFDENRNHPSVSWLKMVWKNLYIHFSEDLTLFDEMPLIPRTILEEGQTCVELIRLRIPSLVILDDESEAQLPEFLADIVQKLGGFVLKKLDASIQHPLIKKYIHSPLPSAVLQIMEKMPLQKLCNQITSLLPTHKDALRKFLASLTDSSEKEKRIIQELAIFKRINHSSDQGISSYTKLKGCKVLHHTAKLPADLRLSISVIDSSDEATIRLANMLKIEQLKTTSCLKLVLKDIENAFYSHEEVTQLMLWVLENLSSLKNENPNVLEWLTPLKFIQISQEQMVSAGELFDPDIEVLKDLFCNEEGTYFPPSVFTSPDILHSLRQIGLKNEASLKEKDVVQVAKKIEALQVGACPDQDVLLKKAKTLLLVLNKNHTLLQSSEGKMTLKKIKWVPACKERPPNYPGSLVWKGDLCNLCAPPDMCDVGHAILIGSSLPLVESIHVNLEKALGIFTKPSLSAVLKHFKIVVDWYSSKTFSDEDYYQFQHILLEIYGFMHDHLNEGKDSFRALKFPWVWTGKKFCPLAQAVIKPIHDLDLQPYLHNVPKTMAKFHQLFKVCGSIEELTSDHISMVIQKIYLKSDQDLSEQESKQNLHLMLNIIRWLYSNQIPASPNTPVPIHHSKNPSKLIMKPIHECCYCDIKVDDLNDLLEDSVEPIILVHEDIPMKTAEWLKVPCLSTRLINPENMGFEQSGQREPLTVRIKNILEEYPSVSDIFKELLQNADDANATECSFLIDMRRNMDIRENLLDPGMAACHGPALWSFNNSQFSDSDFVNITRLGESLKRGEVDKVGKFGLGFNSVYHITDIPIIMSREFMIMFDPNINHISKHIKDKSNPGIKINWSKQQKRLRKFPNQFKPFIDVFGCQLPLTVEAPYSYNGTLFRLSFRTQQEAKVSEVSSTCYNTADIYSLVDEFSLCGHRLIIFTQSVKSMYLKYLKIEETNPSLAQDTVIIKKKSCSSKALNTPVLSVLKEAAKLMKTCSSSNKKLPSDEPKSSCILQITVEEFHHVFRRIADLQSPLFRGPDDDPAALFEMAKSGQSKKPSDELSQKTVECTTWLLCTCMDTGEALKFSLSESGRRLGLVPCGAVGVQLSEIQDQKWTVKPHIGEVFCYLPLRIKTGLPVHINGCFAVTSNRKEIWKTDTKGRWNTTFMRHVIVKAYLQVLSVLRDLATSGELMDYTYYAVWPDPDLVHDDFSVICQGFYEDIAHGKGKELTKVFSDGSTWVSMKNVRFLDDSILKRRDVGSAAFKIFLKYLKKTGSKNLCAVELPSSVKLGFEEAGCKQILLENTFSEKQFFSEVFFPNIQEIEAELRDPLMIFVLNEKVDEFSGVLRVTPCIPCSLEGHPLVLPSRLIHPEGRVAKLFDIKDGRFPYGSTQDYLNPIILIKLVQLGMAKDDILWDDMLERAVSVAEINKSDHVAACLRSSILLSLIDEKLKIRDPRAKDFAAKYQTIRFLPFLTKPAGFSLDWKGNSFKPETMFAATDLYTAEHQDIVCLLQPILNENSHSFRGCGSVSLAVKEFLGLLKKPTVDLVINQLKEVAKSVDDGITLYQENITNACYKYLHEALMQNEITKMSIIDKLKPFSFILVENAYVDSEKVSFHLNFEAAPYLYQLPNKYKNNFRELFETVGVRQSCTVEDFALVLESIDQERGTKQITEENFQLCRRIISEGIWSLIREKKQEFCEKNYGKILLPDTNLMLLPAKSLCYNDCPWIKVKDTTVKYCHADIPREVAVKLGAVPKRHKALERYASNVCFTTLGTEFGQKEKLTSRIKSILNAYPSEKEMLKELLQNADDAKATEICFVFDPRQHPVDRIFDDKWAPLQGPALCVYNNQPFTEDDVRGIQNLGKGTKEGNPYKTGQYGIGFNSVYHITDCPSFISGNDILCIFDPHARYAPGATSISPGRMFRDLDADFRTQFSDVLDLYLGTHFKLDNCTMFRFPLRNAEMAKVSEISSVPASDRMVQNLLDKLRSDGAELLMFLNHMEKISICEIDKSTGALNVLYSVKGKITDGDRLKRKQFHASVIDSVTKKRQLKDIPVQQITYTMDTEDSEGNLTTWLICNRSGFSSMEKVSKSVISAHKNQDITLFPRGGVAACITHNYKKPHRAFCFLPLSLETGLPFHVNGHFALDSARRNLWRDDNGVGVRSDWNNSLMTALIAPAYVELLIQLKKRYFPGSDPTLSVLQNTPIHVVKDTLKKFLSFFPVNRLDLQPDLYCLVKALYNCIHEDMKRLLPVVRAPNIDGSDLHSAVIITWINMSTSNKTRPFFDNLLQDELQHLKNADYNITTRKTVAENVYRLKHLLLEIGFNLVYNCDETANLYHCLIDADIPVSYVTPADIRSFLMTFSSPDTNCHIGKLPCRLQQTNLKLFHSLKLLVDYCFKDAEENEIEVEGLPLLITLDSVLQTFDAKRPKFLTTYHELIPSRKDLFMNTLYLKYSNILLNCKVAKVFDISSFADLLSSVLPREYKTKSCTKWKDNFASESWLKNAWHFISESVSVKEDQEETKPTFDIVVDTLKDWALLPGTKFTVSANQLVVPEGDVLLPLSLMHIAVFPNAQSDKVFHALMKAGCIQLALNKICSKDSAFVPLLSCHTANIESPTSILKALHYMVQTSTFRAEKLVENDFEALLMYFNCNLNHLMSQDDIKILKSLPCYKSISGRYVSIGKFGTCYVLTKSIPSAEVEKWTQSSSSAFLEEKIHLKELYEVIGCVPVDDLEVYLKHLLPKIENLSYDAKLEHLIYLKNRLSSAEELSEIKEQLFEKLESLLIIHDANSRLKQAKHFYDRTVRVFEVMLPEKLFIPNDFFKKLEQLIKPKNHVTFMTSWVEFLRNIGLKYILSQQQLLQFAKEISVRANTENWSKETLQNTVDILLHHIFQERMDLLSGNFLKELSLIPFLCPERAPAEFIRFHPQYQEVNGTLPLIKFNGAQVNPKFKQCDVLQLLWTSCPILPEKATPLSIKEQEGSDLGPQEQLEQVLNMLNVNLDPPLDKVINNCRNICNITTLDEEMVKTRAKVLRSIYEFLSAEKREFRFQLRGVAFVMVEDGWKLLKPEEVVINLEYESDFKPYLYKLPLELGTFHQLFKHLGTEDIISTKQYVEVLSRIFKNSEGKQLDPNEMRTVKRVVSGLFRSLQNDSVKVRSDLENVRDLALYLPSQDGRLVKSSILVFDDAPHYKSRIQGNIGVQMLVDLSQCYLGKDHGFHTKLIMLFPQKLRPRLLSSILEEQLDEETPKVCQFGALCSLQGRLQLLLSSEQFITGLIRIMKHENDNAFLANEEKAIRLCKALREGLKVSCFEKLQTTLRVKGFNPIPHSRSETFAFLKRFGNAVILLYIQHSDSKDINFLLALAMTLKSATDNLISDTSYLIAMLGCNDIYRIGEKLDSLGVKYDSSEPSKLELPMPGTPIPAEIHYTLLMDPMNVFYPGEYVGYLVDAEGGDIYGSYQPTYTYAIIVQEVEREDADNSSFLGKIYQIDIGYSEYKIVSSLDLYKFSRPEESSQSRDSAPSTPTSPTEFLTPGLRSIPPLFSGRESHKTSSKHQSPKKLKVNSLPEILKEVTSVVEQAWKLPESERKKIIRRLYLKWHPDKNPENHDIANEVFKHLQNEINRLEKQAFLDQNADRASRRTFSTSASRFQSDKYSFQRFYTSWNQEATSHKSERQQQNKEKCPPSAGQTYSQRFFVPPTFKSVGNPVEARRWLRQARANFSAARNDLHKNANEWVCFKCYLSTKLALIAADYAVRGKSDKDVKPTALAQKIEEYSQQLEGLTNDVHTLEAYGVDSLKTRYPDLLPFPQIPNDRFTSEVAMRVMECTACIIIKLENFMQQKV
# UniProt Q15050: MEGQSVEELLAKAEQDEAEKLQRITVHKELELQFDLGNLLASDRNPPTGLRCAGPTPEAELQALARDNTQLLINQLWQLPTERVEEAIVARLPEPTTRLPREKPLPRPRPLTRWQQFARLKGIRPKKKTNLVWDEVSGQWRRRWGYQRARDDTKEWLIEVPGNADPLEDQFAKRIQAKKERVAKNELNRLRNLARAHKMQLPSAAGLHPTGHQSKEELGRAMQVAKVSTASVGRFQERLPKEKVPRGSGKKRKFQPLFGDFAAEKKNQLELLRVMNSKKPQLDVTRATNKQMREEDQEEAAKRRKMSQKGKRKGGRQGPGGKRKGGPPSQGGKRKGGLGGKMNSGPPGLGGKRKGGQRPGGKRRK
# UniProt O76064, 285-309: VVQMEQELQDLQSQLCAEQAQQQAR
# UniProt P10155, 288-307: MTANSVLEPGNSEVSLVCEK
# UniProt Q14684: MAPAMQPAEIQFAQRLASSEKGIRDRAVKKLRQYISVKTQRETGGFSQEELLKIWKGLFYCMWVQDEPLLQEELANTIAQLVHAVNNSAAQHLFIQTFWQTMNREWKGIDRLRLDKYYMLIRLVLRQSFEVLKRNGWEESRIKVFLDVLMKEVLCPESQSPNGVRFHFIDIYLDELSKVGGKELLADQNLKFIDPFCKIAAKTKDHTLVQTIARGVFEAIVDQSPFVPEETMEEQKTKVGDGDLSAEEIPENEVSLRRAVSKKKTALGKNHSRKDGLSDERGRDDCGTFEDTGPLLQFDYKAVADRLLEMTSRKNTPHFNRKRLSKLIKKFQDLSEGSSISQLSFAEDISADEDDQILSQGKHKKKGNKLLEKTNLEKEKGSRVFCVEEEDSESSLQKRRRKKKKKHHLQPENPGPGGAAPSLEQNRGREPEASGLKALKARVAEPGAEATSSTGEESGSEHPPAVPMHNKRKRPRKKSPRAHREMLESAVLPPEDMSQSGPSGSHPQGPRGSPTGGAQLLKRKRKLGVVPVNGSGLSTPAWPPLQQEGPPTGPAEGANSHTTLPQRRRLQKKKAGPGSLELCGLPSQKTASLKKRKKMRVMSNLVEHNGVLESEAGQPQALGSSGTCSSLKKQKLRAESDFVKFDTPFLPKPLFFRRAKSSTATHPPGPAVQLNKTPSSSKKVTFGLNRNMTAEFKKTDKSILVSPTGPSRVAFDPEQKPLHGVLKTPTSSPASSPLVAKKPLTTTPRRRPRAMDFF
# UniProt O43148, 83-103: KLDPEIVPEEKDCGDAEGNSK
# The other results are listed elsewhere or left out. The data scatter; read single values as rough.
# Key:
# [1] = compound: ClCC(=O)N[C@@H]1CCCc2ccccc12; assay: log2 mean competition ratio of IA-DTB cysteine labelling (DMSO/compound) (log2 ratio); higher = stronger cysteine engagement by compound; conditions: treatment time: 4 h, cell line lysate: HEK293T
# Protocol: (§1)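 IA-DTB competitive cysteine chemoproteomics in HEK293T RIPA lysate. Lysates were treated with compound 29 or 30 at 50 or 200 µM for 4 h, then IA-DTB (500 µM, 1 h), trypsin-digested, NeutrAvidin-enriched and analysed by diaPASEF. Competition ratio = intensity DMSO / intensity compound (n=4 treated, n=64 DMSO); binding: mean log2 CR ≥ 1 and p ≤ 0.05 plus QC filters. Target is the cysteine site.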
# [2] = compound: ClCC(=O)N[C@H]1CCCc2ccccc12; assay: as above; conditions: treatment time: 4 h, cell line lysate: HEK293T
# Protocol: as §1
Target,log2 mean competition ratio ([1]; 50 µM),log2 mean competition ratio ([1]; 200 µM),log2 mean competition ratio ([2]; 50 µM),log2 mean competition ratio ([2]; 200 µM)
RPL7A C182 (UniProt P62424),0.0295,-0.0236,-0.28,0.0447
RRAGC C52 (UniProt Q9HB90),-0.675,0.0915,-0.223,0.0931
RTRAF C19 (UniProt Q9Y224),0.37,0.464,0.194,-0.113
RPLP0 C119,-0.3,-0.42,0.411,-0.249
RTEL1 C537 (UniProt Q9NZ71),0.0974,0.063,-0.265,0.0697
RRM1 C779 (UniProt P23921),-0.0747,0.236,-0.249,0.0761
RNF34 C149 (UniProt Q969K3),-0.511,0.0102,-0.126,0.222
RNF128 C303,-0.19,-0.207,-0.784,-0.0664
RNF20 C905 (UniProt Q5VTR2),-0.188,0.0195,-0.46,-0.0554
RNF213 C2918,-0.0161,-0.107,0.256,-0.128
RPAP2 C358 (UniProt Q8IXW5),0.377,0.21,0.486,0.154
RUFY1 C351 (UniProt Q96T51),0.243,-0.205,0.173,-0.317
RRAGC C377 (UniProt Q9HB90),0.401,-0.143,0.451,-0.165
SACS C2182 (UniProt Q9NZJ4),-0.0966,-0.191,0.0213,-0.31
SACS C732 (UniProt Q9NZJ4),0.119,0.445,0.352,0.109
RRS1 C52 (UniProt Q15050),0.23,0.251,-0.0463,0.131
RPP30 C87,0.029,0.262,0.0302,0.0424
RNF213 C4258,-0.0119,0.29,0.197,0.28
RNF213 C4570,-0.058,0.312,0.177,0.354
RSPRY1 C190 (UniProt Q96DX4),-0.266,-0.237,-0.17,-0.317
RTN4RL2 C310 (UniProt Q86UN3),-0.403,0.0771,0.0754,0.387
RSRC2 C382 (UniProt Q7L4I2),-0.0744,0.316,-0.325,0.181
RNF8 C300 (UniProt O76064),-0.0686,0.0107,-0.0706,-0.0469
RO60 C305 (UniProt P10155),-0.277,0.0135,0.0194,-0.00966
RPP40 C49 (UniProt O75818),-0.0869,-0.231,-0.301,-0.41

Target,log2 mean competition ratio ([1]; 50 µM),log2 mean competition ratio ([1]; 200 µM),log2 mean competition ratio ([2]; 50 µM),log2 mean competition ratio ([2]; 200 µM)
RPL3 C336 (UniProt P39023),0.201,-0.41,0.243,-0.414
RRM1 C254 (UniProt P23921),-0.114,-0.488,0.0532,-0.191
RTKN C122 (UniProt Q9BST9),-0.179,0.108,-0.279,0.151
RNF213 C2943,-0.324,-0.197,-0.0306,-0.045
RPN2 C72 (UniProt P04844),0.343,0.00186,0.253,-0.163
RPUSD3 C147 (UniProt Q6P087),0.479,0.672,0.884,0.621
SACS C2484 (UniProt Q9NZJ4),0.0348,0.118,-0.187,-0.057
RNF213 C2633,0.0216,-0.142,0.228,-0.0526
RTN4 C912,-0.33,-0.348,0.24,-0.439
RPS19BP1 C104 (UniProt Q86WX3),0.425,-0.28,0.12,-0.0466
RPS11 C131 (UniProt P62280),0.127,-0.137,0.243,-0.269
RNF25 C360 (UniProt Q96BH1),0.353,-0.695,0.37,-0.231
RRP1B C583 (UniProt Q14684),0.134,-0.0232,-0.047,-0.041
RPL3 C157 (UniProt P39023),0.442,-0.236,0.719,-0.287
RPAP1 C185 (UniProt Q9BWH6),-0.404,0.189,0.166,0.144
RNF213 C1429,0.456,-0.45,0.43,-0.259
RNF169 C293 (UniProt Q8NCN4),-0.0118,0.113,0.112,-0.18
RNF214 C23 (UniProt Q8ND24),-0.498,-0.0624,0.0201,0.332
RUVBL1 C49 (UniProt Q9Y265),-0.198,0.053,-0.203,0.0341
RTN3 C582 (UniProt O95197),-0.223,-0.0606,-0.203,-0.0683
RRP12 C317 (UniProt Q5JTH9),0.189,-0.54,0.0521,-0.116
RPL13A C38 (UniProt P40429),0.434,0.11,0.526,0.108
RPS20 C36 (UniProt P60866),0.174,-0.305,-0.05,-0.289
RNMT C95 (UniProt O43148),-0.361,0.00545,-0.00168,-0.0854

# Some of the entries so far, as tab-separated lines.
Target	log2 mean competition ratio ([1]; 50 µM)	log2 mean competition ratio ([1]; 200 µM)	log2 mean competition ratio ([2]; 50 µM)	log2 mean competition ratio ([2]; 200 µM)
RPL3 C336 (UniProt P39023)	0.201	-0.41	0.243	-0.414
RRM1 C254 (UniProt P23921)	-0.114	-0.488	0.0532	-0.191
